Laboratory results: PubChem BioAssay AID504444 (National Center for Advancing Translational Sciences (NCATS), 2011)
In all, about 360,000 compounds went through this assay and about 7,500 (2.1%) were called active. This list was built around the results that the source calls inconclusive (neither active nor inactive); the mix of calls is not that of the screen. Calls follow the shape of the dose curve; as a rule, active = well fitted inhibition curve with a large enough effect; inconclusive = small, poorly fitted or top-dose-only effect, or effect the other way; inactive = flat fitted curve, though single readings scatter. A potency beside an inconclusive call is a rough fit, not a confirmed value.

Assay: Nrf2 qHTS screen for inhibitors; also: nearly all actives have a fitted effect of over 60% in size
Conditions: A549 ARE-Fluc reporter, luciferase luminescence, 18-24 h; activity change, negative = inhibition: at 46 µM (top of the series)
How it was run: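 Cells were seeded and rested 2 h, then exposed to compounds for 18-24 h. CellTiter-Fluor was read first as a viability measure. BugLite was added 15 min before the final luminescent read of ARE-luciferase activity in A549 cells.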
% is scaled to controls: 0 for no effect and ±100 for the full control effect; potency is read from the fitted curve at half-maximal effect.

| Compound | Potency | activity change, negative = inhibition |
| --- | --- | --- |
| NS(=O)(=O)c1ccc(CCNc2ncnc3sccc23)cc1 | active: 1.64 µM |  |
| O=C(CSc1nc2c(c(=O)n1-c1ccccc1)SCC2)NCC1CCCO1 (stereo unspecified) | inconclusive: 29.1 µM [activator, single point] |  |
| COc1ccccc1NC(=S)N(Cc1ccccc1)Cc1cccnc1 | inconclusive: 25.9 µM [falling, partial curve, poor fit] |  |
| O=C(NCCc1nc2ccccc2n1CCOc1ccc(Cl)cc1)C1CCCCC1 | inconclusive: 20.6 µM [falling, single point] |  |
| COc1ccc(-n2cnc3sc(-c4ccccc4)cc3c2=O)cc1 | inconclusive: 0.92 µM [activator, full curve] |  |
| CC(C)c1nnc(NC(=O)c2sc3ccccc3c2Cl)s1 | inconclusive: 5.8 µM [activator, partial curve] |  |
| Cc1cccc(C(=O)Nc2ccccc2SCC(=O)Nc2ccc(C)c(Cl)c2)c1 | inconclusive: 32.6 µM [falling, single point] |  |
| CCOc1ccc(/C=C/c2nc(C#N)c(N(C)C)o2)cc1 | inconclusive: 2.59 µM [activator, full curve] |  |
| C/C(=N\Nc1ncc(Cl)cc1Cl)c1ccc(OC(F)F)cc1 | inconclusive: 9.2 µM [activator, partial curve] |  |
| Cn1c(C(=O)N2CCC(C(=O)N3CCN(Cc4ccc5c(c4)OCO5)CC3)CC2)cc2sccc21 | inconclusive: 13 µM [falling, single point] |  |
| CC(C)c1ccc(NC(=O)c2cc(S(=O)(=O)N3CCCC3)c[nH]2)cc1 |  | inactive: -21.5% |
| Cc1cc2c(cc1NC(=O)c1ccc(C(C)(C)C)cc1)n(C)c(=O)c(=O)n2C | inconclusive: 5.8 µM [falling, partial curve, poor fit] |  |
| Oc1ccc(-c2csc(-c3ccccc3)n2)cc1O |  | inactive: 2% |
| CCOc1ccccc1CNC(=O)c1nn(C)c2c1CS(=O)(=O)c1ccccc1-2 | inconclusive: 18.4 µM [activator, single point] |  |
| CN1C(=O)NC(c2ccccc2)(C(F)(F)F)S/C1=C(/C#N)c1nnc(N2CCOCC2)n1-c1ccccc1 (stereo unspecified) | inconclusive: 8.2 µM [falling, partial curve] |  |
| Cc1ccc(NC(=O)c2sc3nc(CCl)[nH]c(=O)c3c2C)c(C)c1 | inconclusive: 4.61 µM [activator, single point] |  |
| CC(=O)Nc1ccc(CC(=O)NCCC(c2ccccc2)c2ccccc2)cc1 | inconclusive: 18.4 µM [activator, partial curve] |  |
| COc1ccc(Cc2noc(-c3ccc(OC)c(OC)c3)n2)cc1OC | inconclusive: 23.1 µM [falling, single point] |  |
| COc1ccc2oc(C(=O)NC3CCCCC3)c(C)c2c1 | inconclusive: 2.59 µM [activator, full curve] |  |
| CN=C1c2cc3cc(OC)ccc3n2CCN1Cc1ccccc1 |  | inactive: 0.184% |
| CCc1ccc2oc(-c3cc(N)ccc3Cl)nc2c1 | inconclusive: 1.58 µM [activator, full curve] |  |

| Compound | Potency | activity change, negative = inhibition |
| --- | --- | --- |
| CC(=O)OCCSc1c(-c2ccccc2)c2cc(Cl)ccc2[nH]c1=O | inconclusive: 32.6 µM [falling, single point] |  |
| CC(=O)Nc1ccc(S(=O)(=O)N2CCSC2c2ccc(Cl)cc2)cc1 (stereo unspecified) | inconclusive: 23.1 µM [falling, partial curve, poor fit] |  |
| COC(=O)c1sccc1NC(=O)Nc1ccc(C)c(C)c1 | inconclusive: 2.31 µM [activator, full curve] |  |
| O=C1CC(c2ccccc2)Cc2[nH]c(=O)c(-c3nc(-c4ccc(F)cc4)cs3)cc21 (stereo unspecified) |  | inactive: 1.05% |
| COc1ccc(CN2CCNC(=O)C2CC(=O)NCc2cnn(C)c2)cc1OC (stereo unspecified) | inconclusive: 7.31 µM [activator, full curve, poor fit] |  |
| Cc1ccccc1-c1nc(CS(=O)CC(=O)NCCc2ccc(Cl)cc2)c(C)o1 (stereo unspecified) | inconclusive: 29.1 µM [falling, single point] |  |
| CCOC(=O)c1cnc2ccc(OCC)cc2c1N1CCN(c2cccc(Cl)c2)CC1 | inconclusive: 0.0366 µM [activator, full curve, poor fit] |  |
| Cc1ccc(-c2nc3ccccc3s2)cc1NC(=O)c1cc(-n2cnnc2)ccc1Cl | inconclusive: 2.31 µM [activator, partial curve, poor fit] |  |
| CCOc1ccc(C2c3c(oc4ccc(C)cc4c3=O)C(=O)N2c2nc(C)c(C)s2)cc1OC (stereo unspecified) |  | inactive: 7.02% |
| COC(=O)c1nn(-c2ccccc2)c(Sc2ccc(Cl)cc2)c1/C=N/O | inconclusive: 29.1 µM [falling, single point] |  |
| Cc1cc(C(=O)COc2ccccc2[N+](=O)[O-])c(C)n1C1CC1 | inconclusive: 11.6 µM [activator, partial curve, poor fit] |  |
| COc1ccc(-c2noc(-c3ccc(N4CCCCC4)c([N+](=O)[O-])c3)n2)cc1 | inconclusive: 29.1 µM [falling, single point] |  |
| COc1ccc(NC(=O)Cn2nnc3sc4c(c3c2=O)CC(C)(C)OC4)cc1 | inconclusive: 23.1 µM [falling, single point] |  |
| Cc1ccc(-c2nc(Nc3ccccc3)n[nH]2)cc1 | inconclusive: 15.8 µM [activator, partial curve] |  |
| CCCCCCOc1ccc(-c2nc3ccc(Br)cc3c(=O)o2)cc1 |  | inactive: -0.292% |
| CC1CCCCC1NC(=O)COc1ccccc1C#N (stereo unspecified) | inconclusive: 20.6 µM [activator, single point] |  |
| CCOC(=O)c1sc(Nc2nc3c(OC)cccc3s2)cc1C | inconclusive: 29.1 µM [falling, single point] |  |
| COc1ccc(CN(CCC(c2ccc(F)cc2)C2CCOC(C)(C)C2)C(=O)c2ccco2)cc1 (stereo unspecified) | inconclusive: 20.6 µM [falling, partial curve, poor fit] |  |
| CC(=O)Nc1ccn(C2CC3OCC(NC(=O)C(Cc4ccccc4)NC(=O)OC(C)(C)C)C3O2)c(=O)n1 (stereo unspecified) |  | inactive: 22.6% |
| CCOc1cccc(-c2nnc3sc(C4CCCCC4)nn23)c1 | inconclusive: 11.6 µM [falling, partial curve, poor fit] |  |

By substructure, the compounds so far containing two or more sulfur atoms

| Compound | Potency | activity change, negative = inhibition |
| --- | --- | --- |
| NS(=O)(=O)c1ccc(CCNc2ncnc3sccc23)cc1 | active: 1.64 µM |  |
| O=C(CSc1nc2c(c(=O)n1-c1ccccc1)SCC2)NCC1CCCO1 (stereo unspecified) | inconclusive: 29.1 µM [activator, single point] |  |
| CC(C)c1nnc(NC(=O)c2sc3ccccc3c2Cl)s1 | inconclusive: 5.8 µM [activator, partial curve] |  |
| CC(=O)Nc1ccc(S(=O)(=O)N2CCSC2c2ccc(Cl)cc2)cc1 (stereo unspecified) | inconclusive: 23.1 µM [falling, partial curve, poor fit] |  |
| CCOC(=O)c1sc(Nc2nc3c(OC)cccc3s2)cc1C | inconclusive: 29.1 µM [falling, single point] |  |
